Source: PubChem BioAssay AID504784 (Drosophila RNAi Screening Center, 2011)
Aim: 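Search for regulators of lipid droplet storage in oleate-fed fly cells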 (primary screen). System: Drosophila Kc167 embryonic cells. Reagent: long dsRNA against Drosophila genes, about 250 ng dsRNA per well. Duration: 4 days. Treatment: cells fed 400 µM oleic acid bound to BSA. Detection: 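Microscope images give a droplet-to-nucleus area ratio, taken as log and converted to a screen-wide B-score; higher values mean greater lipid storage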. Scale: droplet/nuclear area B-score: higher = more stored lipid (overstorage).
The screen tested about 17,000 reagents; below is an unselected part of those with a known target gene and a result. 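Each column is one replicate's B-score; the combined score over replicates was not deposited, so single values may mislead.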 Further read-outs or replicates are left out here.

CG14362 [DRSC14824]
- droplet/nuclear area B-score, replicate 1: -0.575

gnu [DRSC10497]
- droplet/nuclear area B-score, replicate 1: 0.138

CG8526 [DRSC16438]
- droplet/nuclear area B-score, replicate 1: 0.038

CG16758 [DRSC07984]
- droplet/nuclear area B-score, replicate 1: -0.541

CG16758 [DRSC08492]
- droplet/nuclear area B-score, replicate 1: 0.0225

CheB38a [DRSC03205]
- droplet/nuclear area B-score, replicate 1: -0.671

CG13044 [DRSC09925]
- droplet/nuclear area B-score, replicate 1: -0.245

Snap25 [DRSC21228]
- droplet/nuclear area B-score, replicate 1: -0.787

Snap25 [DRSC21236]
- droplet/nuclear area B-score, replicate 1: -0.721

Lint-1 [DRSC19822]
- droplet/nuclear area B-score, replicate 1: 1.6

CG32333 [DRSC08627]
- droplet/nuclear area B-score, replicate 1: -4.28

CG32333 [DRSC08629]
- droplet/nuclear area B-score, replicate 1: 0.121

Cpr47Ea [DRSC07333]
- droplet/nuclear area B-score, replicate 1: -3.72

CG15025 [DRSC15031]
- droplet/nuclear area B-score, replicate 1: -0.91

l(3)07882 [DRSC15882]
- droplet/nuclear area B-score, replicate 1: 0.243

CG2267 [DRSC15435]
- droplet/nuclear area B-score, replicate 1: -1.96
